Data taken from publication doi:10.1101/2020.03.04.975474.

Amino acid sequences for entries named in this document (tags omitted).
UniProt Q14157: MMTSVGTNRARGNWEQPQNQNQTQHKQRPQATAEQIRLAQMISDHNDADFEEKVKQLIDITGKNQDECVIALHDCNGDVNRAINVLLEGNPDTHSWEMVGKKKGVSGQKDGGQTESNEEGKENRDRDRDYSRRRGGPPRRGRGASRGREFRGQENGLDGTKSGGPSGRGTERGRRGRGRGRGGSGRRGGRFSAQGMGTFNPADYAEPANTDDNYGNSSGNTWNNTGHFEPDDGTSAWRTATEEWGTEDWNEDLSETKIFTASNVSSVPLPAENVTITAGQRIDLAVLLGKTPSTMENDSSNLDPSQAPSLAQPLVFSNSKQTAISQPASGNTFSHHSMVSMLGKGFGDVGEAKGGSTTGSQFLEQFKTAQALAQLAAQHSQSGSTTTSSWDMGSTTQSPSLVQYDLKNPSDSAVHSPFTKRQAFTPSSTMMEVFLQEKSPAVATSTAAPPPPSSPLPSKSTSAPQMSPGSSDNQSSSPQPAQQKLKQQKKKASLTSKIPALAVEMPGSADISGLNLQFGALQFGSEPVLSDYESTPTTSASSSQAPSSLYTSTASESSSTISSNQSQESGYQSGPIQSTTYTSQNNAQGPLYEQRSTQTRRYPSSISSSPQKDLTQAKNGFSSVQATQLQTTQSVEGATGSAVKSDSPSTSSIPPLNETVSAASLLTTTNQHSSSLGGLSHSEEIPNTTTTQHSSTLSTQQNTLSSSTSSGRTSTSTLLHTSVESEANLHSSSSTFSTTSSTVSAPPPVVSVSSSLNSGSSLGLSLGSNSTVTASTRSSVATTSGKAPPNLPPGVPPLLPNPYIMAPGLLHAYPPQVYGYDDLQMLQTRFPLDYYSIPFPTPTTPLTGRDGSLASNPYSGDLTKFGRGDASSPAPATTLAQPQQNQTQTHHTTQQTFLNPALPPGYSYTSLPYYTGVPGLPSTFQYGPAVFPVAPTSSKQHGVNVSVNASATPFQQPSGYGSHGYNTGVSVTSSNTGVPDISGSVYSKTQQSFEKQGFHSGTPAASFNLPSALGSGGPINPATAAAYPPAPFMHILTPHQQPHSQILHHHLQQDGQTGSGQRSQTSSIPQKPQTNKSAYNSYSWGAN
UniProt P48634: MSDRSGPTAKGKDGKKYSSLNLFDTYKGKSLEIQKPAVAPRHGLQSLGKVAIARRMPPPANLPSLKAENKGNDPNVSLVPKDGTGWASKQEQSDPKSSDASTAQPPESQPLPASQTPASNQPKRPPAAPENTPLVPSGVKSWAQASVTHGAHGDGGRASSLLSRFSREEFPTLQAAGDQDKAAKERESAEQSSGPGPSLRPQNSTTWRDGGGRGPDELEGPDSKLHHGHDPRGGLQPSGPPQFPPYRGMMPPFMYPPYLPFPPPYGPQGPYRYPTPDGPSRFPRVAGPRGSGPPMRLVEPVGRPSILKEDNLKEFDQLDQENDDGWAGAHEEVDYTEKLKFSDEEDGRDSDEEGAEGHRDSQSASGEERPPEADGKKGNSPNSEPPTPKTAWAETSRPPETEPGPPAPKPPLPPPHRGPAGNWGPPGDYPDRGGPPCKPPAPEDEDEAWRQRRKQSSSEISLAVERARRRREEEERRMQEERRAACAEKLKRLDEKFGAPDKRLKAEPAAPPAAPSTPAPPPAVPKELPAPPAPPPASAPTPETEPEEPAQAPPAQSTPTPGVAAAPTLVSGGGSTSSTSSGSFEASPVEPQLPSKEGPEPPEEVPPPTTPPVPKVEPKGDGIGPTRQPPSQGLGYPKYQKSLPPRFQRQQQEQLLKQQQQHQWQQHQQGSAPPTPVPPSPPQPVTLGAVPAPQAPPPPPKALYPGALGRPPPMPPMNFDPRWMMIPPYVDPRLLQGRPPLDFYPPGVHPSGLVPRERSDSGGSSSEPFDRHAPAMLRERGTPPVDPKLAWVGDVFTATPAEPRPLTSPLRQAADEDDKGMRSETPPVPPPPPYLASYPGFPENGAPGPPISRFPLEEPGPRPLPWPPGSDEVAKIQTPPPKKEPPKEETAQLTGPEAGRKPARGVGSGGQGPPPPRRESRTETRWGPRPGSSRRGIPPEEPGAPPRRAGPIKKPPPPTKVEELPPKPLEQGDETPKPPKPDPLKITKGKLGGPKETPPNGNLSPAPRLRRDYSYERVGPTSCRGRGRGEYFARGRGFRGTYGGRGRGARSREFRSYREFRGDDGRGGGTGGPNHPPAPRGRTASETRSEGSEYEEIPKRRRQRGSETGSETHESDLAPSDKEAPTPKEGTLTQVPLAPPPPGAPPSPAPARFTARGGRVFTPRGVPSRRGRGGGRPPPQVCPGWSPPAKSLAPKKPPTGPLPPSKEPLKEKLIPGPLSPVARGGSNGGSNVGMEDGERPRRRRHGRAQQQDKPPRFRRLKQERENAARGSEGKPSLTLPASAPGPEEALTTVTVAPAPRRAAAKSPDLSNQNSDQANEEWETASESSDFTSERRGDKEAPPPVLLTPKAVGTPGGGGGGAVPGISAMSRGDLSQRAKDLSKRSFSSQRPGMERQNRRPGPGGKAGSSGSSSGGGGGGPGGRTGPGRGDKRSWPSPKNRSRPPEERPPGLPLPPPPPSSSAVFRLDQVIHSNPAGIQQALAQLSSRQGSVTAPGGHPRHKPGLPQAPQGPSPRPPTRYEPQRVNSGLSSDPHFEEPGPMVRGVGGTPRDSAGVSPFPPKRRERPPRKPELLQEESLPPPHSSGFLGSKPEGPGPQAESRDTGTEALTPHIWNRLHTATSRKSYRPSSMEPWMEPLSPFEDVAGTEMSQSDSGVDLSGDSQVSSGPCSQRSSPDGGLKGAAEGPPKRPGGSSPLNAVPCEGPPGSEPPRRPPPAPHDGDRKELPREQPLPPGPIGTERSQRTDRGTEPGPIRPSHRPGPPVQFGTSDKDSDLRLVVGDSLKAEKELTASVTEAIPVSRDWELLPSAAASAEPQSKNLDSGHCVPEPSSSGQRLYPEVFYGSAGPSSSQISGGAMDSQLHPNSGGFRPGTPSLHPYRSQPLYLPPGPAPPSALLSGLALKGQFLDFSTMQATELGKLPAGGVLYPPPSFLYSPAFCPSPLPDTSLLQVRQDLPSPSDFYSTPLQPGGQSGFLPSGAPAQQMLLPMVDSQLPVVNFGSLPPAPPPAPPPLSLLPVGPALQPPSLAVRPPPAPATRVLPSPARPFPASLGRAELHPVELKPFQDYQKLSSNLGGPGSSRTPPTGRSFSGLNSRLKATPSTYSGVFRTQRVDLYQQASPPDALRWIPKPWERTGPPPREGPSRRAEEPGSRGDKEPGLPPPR
UniProt Q9Y520: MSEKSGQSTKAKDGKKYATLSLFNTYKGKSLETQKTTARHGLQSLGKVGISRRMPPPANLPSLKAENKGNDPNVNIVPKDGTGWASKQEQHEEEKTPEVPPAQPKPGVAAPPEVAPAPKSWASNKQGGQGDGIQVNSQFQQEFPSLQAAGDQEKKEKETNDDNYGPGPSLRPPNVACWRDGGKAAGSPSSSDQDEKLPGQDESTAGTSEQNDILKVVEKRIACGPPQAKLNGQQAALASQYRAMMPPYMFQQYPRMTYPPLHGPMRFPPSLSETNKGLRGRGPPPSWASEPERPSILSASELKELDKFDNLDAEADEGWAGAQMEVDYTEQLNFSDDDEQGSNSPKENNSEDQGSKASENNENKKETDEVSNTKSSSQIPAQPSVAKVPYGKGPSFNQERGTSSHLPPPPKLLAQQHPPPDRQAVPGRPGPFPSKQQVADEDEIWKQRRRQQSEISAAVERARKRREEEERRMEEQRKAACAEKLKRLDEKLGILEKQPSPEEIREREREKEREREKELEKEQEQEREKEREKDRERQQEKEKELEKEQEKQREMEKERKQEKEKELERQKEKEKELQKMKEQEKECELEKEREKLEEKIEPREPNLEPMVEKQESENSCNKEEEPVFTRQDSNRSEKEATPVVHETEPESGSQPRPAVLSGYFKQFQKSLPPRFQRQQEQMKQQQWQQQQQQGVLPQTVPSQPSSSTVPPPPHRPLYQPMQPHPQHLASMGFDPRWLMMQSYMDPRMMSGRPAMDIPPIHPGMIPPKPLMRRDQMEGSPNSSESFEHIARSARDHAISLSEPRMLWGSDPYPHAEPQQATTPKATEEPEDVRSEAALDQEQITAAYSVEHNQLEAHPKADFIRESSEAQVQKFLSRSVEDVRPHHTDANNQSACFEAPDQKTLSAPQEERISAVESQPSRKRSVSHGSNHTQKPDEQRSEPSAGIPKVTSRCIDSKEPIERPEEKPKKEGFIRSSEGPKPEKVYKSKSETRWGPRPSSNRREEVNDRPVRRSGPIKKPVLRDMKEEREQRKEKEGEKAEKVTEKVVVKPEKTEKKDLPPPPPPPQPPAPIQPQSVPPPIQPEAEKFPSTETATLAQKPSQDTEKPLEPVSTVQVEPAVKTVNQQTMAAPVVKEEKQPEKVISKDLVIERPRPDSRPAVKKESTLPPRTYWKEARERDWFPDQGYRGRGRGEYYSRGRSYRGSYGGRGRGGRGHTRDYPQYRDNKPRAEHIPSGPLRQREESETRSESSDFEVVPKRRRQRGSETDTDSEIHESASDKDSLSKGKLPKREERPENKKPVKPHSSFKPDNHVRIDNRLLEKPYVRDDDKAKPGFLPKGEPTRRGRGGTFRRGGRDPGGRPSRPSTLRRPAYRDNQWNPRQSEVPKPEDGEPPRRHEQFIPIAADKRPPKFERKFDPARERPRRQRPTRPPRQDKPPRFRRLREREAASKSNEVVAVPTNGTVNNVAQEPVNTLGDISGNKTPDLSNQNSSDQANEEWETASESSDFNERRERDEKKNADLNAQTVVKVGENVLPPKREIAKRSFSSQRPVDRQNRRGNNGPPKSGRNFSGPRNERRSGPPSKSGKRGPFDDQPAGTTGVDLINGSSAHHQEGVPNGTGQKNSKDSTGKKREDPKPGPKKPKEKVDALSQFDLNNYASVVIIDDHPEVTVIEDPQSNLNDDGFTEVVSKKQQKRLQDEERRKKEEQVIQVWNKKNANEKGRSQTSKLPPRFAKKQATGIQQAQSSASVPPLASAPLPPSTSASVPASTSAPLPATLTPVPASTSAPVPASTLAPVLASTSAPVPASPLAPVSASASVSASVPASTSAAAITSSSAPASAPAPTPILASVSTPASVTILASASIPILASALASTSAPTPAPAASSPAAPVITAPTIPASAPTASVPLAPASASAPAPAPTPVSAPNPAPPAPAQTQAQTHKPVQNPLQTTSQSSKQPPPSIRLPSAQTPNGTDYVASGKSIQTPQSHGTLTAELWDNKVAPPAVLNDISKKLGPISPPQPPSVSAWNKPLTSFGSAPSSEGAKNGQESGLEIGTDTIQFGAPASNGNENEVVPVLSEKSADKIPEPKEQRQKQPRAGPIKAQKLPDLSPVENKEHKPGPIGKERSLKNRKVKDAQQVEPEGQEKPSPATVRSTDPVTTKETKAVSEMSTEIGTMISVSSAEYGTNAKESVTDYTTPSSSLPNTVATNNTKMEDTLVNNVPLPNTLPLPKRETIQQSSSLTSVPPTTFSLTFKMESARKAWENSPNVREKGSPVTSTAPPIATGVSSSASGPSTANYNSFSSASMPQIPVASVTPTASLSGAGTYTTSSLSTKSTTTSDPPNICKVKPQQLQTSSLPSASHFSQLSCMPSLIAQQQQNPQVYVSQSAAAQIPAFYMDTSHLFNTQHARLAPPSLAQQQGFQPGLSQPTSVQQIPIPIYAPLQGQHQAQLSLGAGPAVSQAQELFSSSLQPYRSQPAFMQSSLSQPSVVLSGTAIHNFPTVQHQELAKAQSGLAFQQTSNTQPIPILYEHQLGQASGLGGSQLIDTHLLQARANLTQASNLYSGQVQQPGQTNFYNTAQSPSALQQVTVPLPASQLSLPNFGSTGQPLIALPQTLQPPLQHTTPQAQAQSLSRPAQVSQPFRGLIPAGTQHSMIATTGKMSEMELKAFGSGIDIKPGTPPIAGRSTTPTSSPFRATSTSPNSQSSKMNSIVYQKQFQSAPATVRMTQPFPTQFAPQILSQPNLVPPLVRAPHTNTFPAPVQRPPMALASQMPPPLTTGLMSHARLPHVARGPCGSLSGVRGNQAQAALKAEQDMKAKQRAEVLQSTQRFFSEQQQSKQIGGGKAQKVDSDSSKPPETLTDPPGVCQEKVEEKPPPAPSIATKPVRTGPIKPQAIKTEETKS
UniProt P55010: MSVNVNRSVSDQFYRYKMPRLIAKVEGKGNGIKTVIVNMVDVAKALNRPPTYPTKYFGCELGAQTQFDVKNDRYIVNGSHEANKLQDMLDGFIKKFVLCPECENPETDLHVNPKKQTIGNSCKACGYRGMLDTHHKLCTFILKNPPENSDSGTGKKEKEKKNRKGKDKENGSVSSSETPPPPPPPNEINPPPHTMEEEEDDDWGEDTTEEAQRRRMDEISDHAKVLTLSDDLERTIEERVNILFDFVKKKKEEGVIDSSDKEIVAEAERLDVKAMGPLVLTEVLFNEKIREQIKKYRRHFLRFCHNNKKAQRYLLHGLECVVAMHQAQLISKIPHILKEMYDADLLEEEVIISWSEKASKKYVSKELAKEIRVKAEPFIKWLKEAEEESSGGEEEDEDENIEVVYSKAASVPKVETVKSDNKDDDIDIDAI

Key:
LRRC59-BirA reporter [1] = target: T1, LRRC59-BirA reporter (UniProt Q96AG4); assay: proximity labelling
T1 sequence: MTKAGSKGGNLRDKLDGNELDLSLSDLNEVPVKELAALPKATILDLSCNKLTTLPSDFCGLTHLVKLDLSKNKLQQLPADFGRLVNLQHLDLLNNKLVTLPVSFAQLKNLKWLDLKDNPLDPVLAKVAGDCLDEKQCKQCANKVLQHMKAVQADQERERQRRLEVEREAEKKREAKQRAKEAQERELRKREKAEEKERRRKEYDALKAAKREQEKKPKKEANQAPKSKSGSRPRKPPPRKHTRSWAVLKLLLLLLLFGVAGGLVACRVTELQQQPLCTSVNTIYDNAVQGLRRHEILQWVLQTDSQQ

[2] = target: T2, LRRC59 (native, immunoprecipitated from Caco-2 cells) (human (endogenous in Caco-2)) (UniProt Q96AG4); assay: affinity purification with mass spectrometry
T2 sequence: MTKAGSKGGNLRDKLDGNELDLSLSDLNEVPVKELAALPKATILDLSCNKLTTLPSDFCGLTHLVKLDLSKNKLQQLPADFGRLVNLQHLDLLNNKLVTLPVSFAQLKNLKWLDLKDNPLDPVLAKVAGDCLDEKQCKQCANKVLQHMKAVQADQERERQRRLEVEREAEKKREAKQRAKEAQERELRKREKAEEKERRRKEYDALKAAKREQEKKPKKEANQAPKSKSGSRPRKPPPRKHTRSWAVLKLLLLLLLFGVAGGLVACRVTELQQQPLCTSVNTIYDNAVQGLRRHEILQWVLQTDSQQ

LRRC59-BirA reporter [3] = target: T1, LRRC59-BirA reporter; assay: proximity labelling; remark: listed apart in the source

UBAP2L (from UniProt Q14157 1-1087)
binding (LRRC59-BirA reporter [1]): binds

PRRC2A (from UniProt P48634 1-2157)
binding (LRRC59-BirA reporter [1]): binds

SND1 (from UniProt Q7KZF4 1-910)
binding (LRRC59-BirA reporter [1]): binds

PRRC2C (from UniProt Q9Y520 1-2896)
binding (LRRC59-BirA reporter [1]): binds | binding [2]: binds

eIF5 (from UniProt P55010 1-431)
binding (LRRC59-BirA reporter [1]): binds

B1: MTDH/AEG-1 (protein, UniProt Q86UE4 1-582)
chain: MAARSWQDELAQQAEEGSARLREMLSVGLGFLRTELGLDLGLEPKRYPGWVILVGTGALGLLLLFLLGYGWAAACAGARKKRRSPPRKREEAAAVPAAAPDDLALLKNLRSEEQKKKNRKKLSEKPKPNGRTVEVAEGEAVRTPQSVTAKQPPEIDKKNEKSKKNKKKSKSDAKAVQNSSRHDGKEVDEGAWETKISHREKRQQRKRDKVLTDSGSLDSTIPGIENTITVTTEQLTTASFPVGSKKNKGDSHLNVQVSNFKSGKGDSTLQVSSGLNENLTVNGGGWNEKSVKLSSQISAGEEKWNSVSPASAGKRKTEPSAWSQDTGDANTNGKDWGRSWSDRSIFSGIGSTAEPVSQSTTSDYQWDVSRNQPYIDDEWSGLNGLSSADPNSDWNAPAEEWGNWVDEERASLLKSQEPIPDDQKVSDDDKEKGEGALPTGKSKKKKKKKKKQGEDNSTAQDTEELEKEIREDLPVNTSKTRPKQEKAFSLKTISTSDPAEVLVKNSQPIKTLPPATSTEPSVILSKSDSDKSSSQVPPILQETDKSKSNTKQNSVPPSQTKSETSWESPKQIKKKKKARRET
binding (LRRC59-BirA reporter [3]): binds

B2: eIF2A (protein, UniProt Q9BY44 1-585)
chain: MAPSTPLLTVRGSEGLYMVNGPPHFTESTVFPRESGKNCKVCIFSKDGTLFAWGNGEKVNIISVTNKGLLHSFDLLKAVCLEFSPKNTVLATWQPYTTSKDGTAGIPNLQLYDVKTGTCLKSFIQKKMQNWCPSWSEDETLCARNVNNEVHFFENNNFNTIANKLHLQKINDFVLSPGPQPYKVAVYVPGSKGAPSFVRLYQYPNFAGPHAALANKSFFKADKVTMLWNKKATAVLVIASTDVDKTGASYYGEQTLHYIATNGESAVVQLPKNGPIYDVVWNSSSTEFCAVYGFMPAKATIFNLKCDPVFDFGTGPRNAAYYSPHGHILVLAGFGNLRGQMEVWDVKNYKLISKPVASDSTYFAWCPDGEHILTATCAPRLRVNNGYKIWHYTGSILHKYDVPSNAELWQVSWQPFLDGIFPAKTITYQAVPSEVPNEEPKVATAYRPPALRNKPITNSKLHEEEPPQNMKPQSGNDKPLSKTALKNQRKHEAKKAAKQEARSDKSPDLAPTPAPQSTPRNTVSQSISGDPEIDKKIKNLKKKLKAIEQLKEQAATGKQLEKNQLEKIQKETALLQELEDLELGI
binding (LRRC59-BirA reporter [3]): binds

B3: RRBP1 (p180, ribosome-binding protein) (protein, UniProt Q9P2E9 1-1410)
chain: MDIYDTQTLGVVVFGGFMVVSAIGIFLVSTFSMKETSYEEALANQRKEMAKTHHQKVEKKKKEKTVEKKGKTKKKEEKPNGKIPDHDPAPNVTVLLREPVRAPAVAVAPTPVQPPIIVAPVATVPAMPQEKLASSPKDKKKKEKKVAKVEPAVSSVVNSIQVLTSKAAILETAPKEVPMVVVPPVGAKGNTPATGTTQGKKAEGTQNQSKKAEGAPNQGRKAEGTPNQGKKTEGTPNQGKKAEGTPNQGKKAEGTPNQGKKAEGAQNQGKKVDTTPNQGKKVEGAPTQGRKAEGAQNQAKKVEGAQNQGKKAEGAQNQGKKGEGAQNQGKKAEGAQNQGKKAEGAQNQGKKAEGAQNQGKKAEGAQNQGKKAEGAQNQGKKAEGAQNQGKKVEGAQNQGKKAEGAQNQGKKAEGAQNQGKKAEGAQNQGKKAEGAQNQGKKAEGAQNQGKKAEGAQNQGKKAEGAQNQGKKVEGAQNQGKKAEGAQNQGKKAEGAQNQGKKAEGAQNQGQKGEGAQNQGKKTEGAQGKKAERSPNQGKKGEGAPIQGKKADSVANQGTKVEGITNQGKKAEGSPSEGKKAEGSPNQGKKADAAANQGKKTESASVQGRNTDVAQSPEAPKQEAPAKKKSGSKKKGEPGPPDADGPLYLPYKTLVSTVGSMVFNEGEAQRLIEILSEKAGIIQDTWHKATQKGDPVAILKRQLEEKEKLLATEQEDAAVAKSKLRELNKEMAAEKAKAAAGEAKVKKQLVAREQEITAVQARMQASYREHVKEVQQLQGKIRTLQEQLENGPNTQLARLQQENSILRDALNQATSQVESKQNAELAKLRQELSKVSKELVEKSEAVRQDEQQRKALEAKAAAFEKQVLQLQASHRESEEALQKRLDEVSRELCHTQSSHASLRADAEKAQEQQQQMAELHSKLQSSEAEVRSKCEELSGLHGQLQEARAENSQLTERIRSIEALLEAGQARDAQDVQASQAEADQQQTRLKELESQVSGLEKEAIELREAVEQQKVKNNDLREKNWKAMEALATAEQACKEKLLSLTQAKEESEKQLCLIEAQTMEALLALLPELSVLAQQNYTEWLQDLKEKGPTLLKHPPAPAEPSSDLASKLREAEETQSTLQAECDQYRSILAETEGMLRDLQKSVEEEEQVWRAKVGAAEEELQKSRVTVKHLEEIVEKLKGELESSDQVREHTSHLEAELEKHMAAASAECQNYAKEVAGLRQLLLESQSQLDAAKSEAQKQSDELALVRQQLSEMKSHVEDGDIAGAPASSPEAPPAEQDPVQLKTQLEWTEAILEDEQTQRQKLTAEFEEAQTSACRLQEELEKLRTAGPLESSETEEASQLKERLEKEKKLTSDLGRAATRLQELLKTTQEQLAREKDTVKKLQEQLEKAEDGSSSKEGTSV
binding (LRRC59-BirA reporter [3]): binds | binding [2]: binds

B4: SRP72 (protein, UniProt O76094 1-671)
chain: MASGGSGGVSVPALWSEVNRYGQNGDFTRALKTVNKILQINKDDVTALHCKVVCLIQNGSFKEALNVINTHTKVLANNSLSFEKAYCEYRLNRIENALKTIESANQQTDKLKELYGQVLYRLERYDECLAVYRDLVRNSQDDYDEERKTNLSAVVAAQSNWEKVVPENLGLQEGTHELCYNTACALIGQGQLNQAMKILQKAEDLCRRSLSEDTDGTEEDPQAELAIIHGQMAYILQLQGRTEEALQLYNQIIKLKPTDVGLLAVIANNIITINKDQNVFDSKKKVKLTNAEGVEFKLSKKQLQAIEFNKALLAMYTNQAEQCRKISASLQSQSPEHLLPVLIQAAQLCREKQHTKAIELLQEFSDQHPENAAEIKLTMAQLKISQGNISKACLILRSIEELKHKPGMVSALVTMYSHEEDIDSAIEVFTQAIQWYQNHQPKSPAHLSLIREAANFKLKYGRKKEAISDLQQLWKQNPKDIHTLAQLISAYSLVDPEKAKALSKHLPSSDSMSLKVDVEALENSAGATYIRKKGGKVTGDSQPKEQGQGDLKKKKKKKKGKLPKNYDPKVTPDPERWLPMRERSYYRGRKKGKKKDQIGKGTQGATAGASSELDASKTVSSPPTSPRPGSAATVSASTSNIIPPRHQKPAGAPATKKKQQQKKKKGGKGGW
binding (LRRC59-BirA reporter [3]): binds | binding [2]: binds

B5: SRP68 (protein, UniProt Q9UHB9 1-627)
chain: MAAEKQVPGGGGGGGSGGGGGSGGGGSGGGRGAGGEENKENERPSAGSKANKEFGDSLSLEILQIIKESQQQHGLRHGDFQRYRGYCSRRQRRLRKTLNFKMGNRHKFTGKKVTEELLTDNRYLLLVLMDAERAWSYAMQLKQEANTEPRKRFHLLSRLRKAVKHAEELERLCESNRVDAKTKLEAQAYTAYLSGMLRFEHQEWKAAIEAFNKCKTIYEKLASAFTEEQAVLYNQRVEEISPNIRYCAYNIGDQSAINELMQMRLRSGGTEGLLAEKLEALITQTRAKQAATMSEVEWRGRTVPVKIDKVRIFLLGLADNEAAIVQAESEETKERLFESMLSECRDAIQVVREELKPDQKQRDYILEGEPGKVSNLQYLHSYLTYIKLSTAIKRNENMAKGLQRALLQQQPEDDSKRSPRPQDLIRLYDIILQNLVELLQLPGLEEDKAFQKEIGLKTLVFKAYRCFFIAQSYVLVKKWSEALVLYDRVLKYANEVNSDAGAFKNSLKDLPDVQELITQVRSEKCSLQAAAILDANDAHQTETSSSQVKDNKPLVERFETFCLDPSLVTKQANLVHFPPGFQPIPCKPLFFDLALNHVAFPPLEDKLEQKTKSGLTGYIKGIFGFRS
binding (LRRC59-BirA reporter [3]): binds | binding [2]: binds

B6: DHX29 (protein, UniProt Q7Z478 1-1369)
chain: MGGKNKKHKAPAAAVVRAAVSASRAKSAEAGIAGEAQSKKPVSRPATAAAAAAGSREPRVKQGPKIYSFNSTNDSSGPANLDKSILKVVINNKLEQRIIGVINEHKKQNNDKGMISGRLTAKKLQDLYMALQAFSFKTKDIEDAMTNTLLYGGDLHSALDWLCLNLSDDALPEGFSQEFEEQQPKSRPKFQSPQIQATISPPLQPKTKTYEEDPKSKPKKEEKNMEVNMKEWILRYAEQQNEEEKNENSKSLEEEEKFDPNERYLHLAAKLLDAKEQAATFKLEKNKQGQKEAQEKIRKFQREMETLEDHPVFNPAMKISHQQNERKKPPVATEGESALNFNLFEKSAAATEEEKDKKKEPHDVRNFDYTARSWTGKSPKQFLIDWVRKNLPKSPNPSFEKVPVGRYWKCRVRVIKSEDDVLVVCPTILTEDGMQAQHLGATLALYRLVKGQSVHQLLPPTYRDVWLEWSDAEKKREELNKMETNKPRDLFIAKLLNKLKQQQQQQQQHSENKRENSEDPEESWENLVSDEDFSALSLESANVEDLEPVRNLFRKLQSTPKYQKLLKERQQLPVFKHRDSIVETLKRHRVVVVAGETGSGKSTQVPHFLLEDLLLNEWEASKCNIVCTQPRRISAVSLANRVCDELGCENGPGGRNSLCGYQIRMESRACESTRLLYCTTGVLLRKLQEDGLLSNVSHVIVDEVHERSVQSDFLLIILKEILQKRSDLHLILMSATVDSEKFSTYFTHCPILRISGRSYPVEVFHLEDIIEETGFVLEKDSEYCQKFLEEEEEVTINVTSKAGGIKKYQEYIPVQTGAHADLNPFYQKYSSRTQHAILYMNPHKINLDLILELLAYLDKSPQFRNIEGAVLIFLPGLAHIQQLYDLLSNDRRFYSERYKVIALHSILSTQDQAAAFTLPPPGVRKIVLATNIAETGITIPDVVFVIDTGRTKENKYHESSQMSSLVETFVSKASALQRQGRAGRVRDGFCFRMYTRERFEGFMDYSVPEILRVPLEELCLHIMKCNLGSPEDFLSKALDPPQLQVISNAMNLLRKIGACELNEPKLTPLGQHLAALPVNVKIGKMLIFGAIFGCLDPVATLAAVMTEKSPFTTPIGRKDEADLAKSALAMADSDHLTIYNAYLGWKKARQEGGYRSEITYCRRNFLNRTSLLTLEDVKQELIKLVKAAGFSSSTTSTSWEGNRASQTLSFQEIALLKAVLVAGLYDNVGKIIYTKSVDVTEKLACIVETAQGKAQVHPSSVNRDLQTHGWLLYQEKIRYARVYLRETTLITPFPVLLFGGDIEVQHRERLLSIDGWIYFQAPVKIAVIFKQLRVLIDSVLRKKLENPKMSLENDKILQIITELIKTENN
binding (LRRC59-BirA reporter [3]): binds | binding [2]: binds

Like-named read-outs stand apart in the source and are kept apart here. These are yes or no findings as the source states them, for the method shown. Binding seen in cells or lysates may run through a third protein. A yes stands for co-enrichment or nearness to the bait. Other partners may have been found.
